Source: PubChem BioAssay AID2685 (National Center for Advancing Translational Sciences (NCATS), 2010)
Where “and” joins values, the source holds several entries; their conditions need not be identical. Equal values may be shown once. Some of the results follow. The main result of the screen is listed elsewhere. These columns were measured beside it and carry no call. The list favours compounds with an active or inconclusive main result. The note in brackets gives the kind of curve behind each potency; many fits are weak.

Assay: qHTS Assay for Lipid Storage Modulators in Drosophila S3 Cells;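 on cell number change: cells counted by Cell Tracker Red CMTPX staining in the red channel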
Conditions: BODIPY lipid droplet fluorescence, 18-24 h; for cell number change: measured here: cell count max response, cells fed with added oleic acid
How it was run: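 Drosophila S3 cells got compounds at several concentrations plus oleic acid (400 uM solution). Laser-scanning cytometry with 488 nm excitation read lipid droplets at 500-530 nm and cells at 575-640 nm. Percent activity was relative to 20 uM Triacsin C.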

[1] = measured here: lipid fluorescence (Fed channel) AC50, cells fed with added oleic acid
[2] = measured here: cell number channel AC50, cells fed with added oleic acid

Structure (SMILES) | cell number change | AC50 [1] | AC50 [2]
CCc1ccc2c(c1)c(N=NC1=NC(=O)CS1)c(O)n2C | -17.4% | 7.31 µM [rising, partial curve] | –
CC(C)(C)C1CCC(OCC(O)CN2CCN(Cc3ccccc3)CC2)CC1 (centres undefined) | -25.5% | 11.6 µM [falling, partial curve, poor fit] | –
CCN1C(=NCCc2c[nH]c3ccccc23)N[C@@H](c2ccccc2)C(C(=O)OC)=C1C | -12.9% and 8.14% | – | 0.326 µM [rising, full curve, poor fit]
O=C(NC(=O)c1ccccc1)Nc1ccc(Cl)cn1 | -33.7% | – | 29.1 µM [falling, single point]
O=C(COc1ccc([N+](=O)[O-])cc1)NN=C1CCCC1 | 25.3% | 29.1 µM [falling, single point] | –
COCCCN1C(=O)C(=O)/C(=C(/O)c2ccc3c(c2)CC(C)O3)C1c1cccnc1 (centres undefined) | -9.76% | – | –
CCN1C(=O)[C@H]2[C@@H](c3ccc(-c4ccc(C(C)=O)cc4)c(OC)c3)N[C@@](Cc3ccccc3)(C(=O)OC)[C@H]2C1=O | -35.5% | – | 10.3 µM [falling, partial curve, poor fit]
N#Cc1nc(Cc2cccc3ccccc23)oc1N1CCC(C(N)=O)CC1 | -14.2% | – | 6.51 µM [falling, single point]
NC(=O)CN1C(=O)/C(=c2\sc3nc(=O)c(Cc4ccccc4)nn3c2=O)c2ccccc21 | 13.2% | 0.92 µM [falling, full curve] | –
COc1cccc(N2CCN(c3ccc4nnc(CCC(=O)N5CCC(C)CC5)n4n3)CC2)c1 | 32.1% | 2.06 µM [falling, partial curve] | 18.4 µM [rising, single point]
COc1ccc(C(=O)Nc2nc(CC(=O)NCc3ccc(F)cc3)cs2)cc1 | -50% | 20.6 µM [falling, partial curve, poor fit] | 0.82 µM [falling, full curve, poor fit]
CCN(c1ccccc1)S(=O)(=O)c1cc(C(=O)NCc2ccccn2)ccc1C | 16.5% | 3.26 µM [rising, partial curve] | –
Cn1cccc1-c1cc(C(=O)N/N=C/c2cc(Br)ccc2O)[nH]n1 | 10.4% | – | –
COc1ccc(CN2CCN(Cc3csc(C(C)=O)c3)CC2CCO)c(C)c1C (centres undefined) | -2.74% | 29.1 µM [rising, single point] | –
CCCCn1c(N)c(N(CCOC)C(=O)c2oc3ccc(OCC)cc3c2C)c(=O)[nH]c1=O | 8.43% | 18.4 µM [rising, single point] | –
CCOc1ccc2oc(-c3ccccc3)c(C(N)=O)c2c1 | -0.874% | 0.0116 µM [rising, full curve, poor fit] | –
CCN(CC)S(=O)(=O)c1ccc(/C=C/C(=O)OCC#N)cc1 | 20.7% | 0.651 µM [falling, full curve] | –
Cc1ccccc1C(=O)NNC(=O)CSc1nnc(C)n1-c1ccccc1 | -19.6% | 0.82 µM [falling, full curve, poor fit] | –
CCCCC(=O)Nc1cccc(C(=O)Nc2ccccc2C(=O)O)c1 | 8.35% | 0.92 µM [falling, full curve] | –
CCCCCCn1c(CN2CCN(Cc3ccccc3)CC2)nc2c1c(=O)n(C)c(=O)n2C | – | – | 3.26 µM [rising, partial curve]

Structure (SMILES) | cell number change | AC50 [1] | AC50 [2]
CCOC(=O)c1ccc(N2C(=O)C3C(/C=C/c4ccccc4)OC4(C(=O)c5ccccc5C4=O)C3C2=O)cc1 (centres undefined) | 11.6% | 8.2 µM [rising, partial curve, poor fit] | –
C=CCn1c(SCC)nc(O)cc1=O | -26.4% | 29.1 µM [falling, single point] | 0.411 µM [falling, partial curve, poor fit]
CCN1CCN(c2oc(/C=C/c3ccccc3)nc2C#N)CC1 | – | 5.8 µM [rising, single point] | –
Cc1ccc(S(=O)(=O)N/N=C/c2ccc(OS(=O)(=O)c3ccc(C)c([N+](=O)[O-])c3)cc2)cc1 | 39.7% | – | 4.11 µM [rising, single point]
CSCCC(NS(=O)(=O)c1ccc2c(c1)OCCO2)C(=O)N(C)Cc1ccc(C)cc1 (centres undefined) | -44.9% | 1.64 µM [falling, full curve] | 1.84 µM [falling, full curve]
CC(=O)Nc1c(-c2ccc(F)cc2)nc2ccccn12 | 6.02% | 0.146 µM [falling, single point] | 0.103 µM [falling, single point]
COc1ccc(C)cc1S(=O)(=O)N(C)CC(=O)NC1CC1 | 1.4% | 29.1 µM [rising, single point] | –
COc1ccc(CS(=O)c2nc(C)cc(C)c2S(C)(=O)=O)cc1 (centres undefined) | 73.3% | – | 5.8 µM [falling, single point]
COc1ccc(/C=C2/C(=O)OCc3cc(OC)c(OC)cc32)cc1 | 0.497% | 9.2 µM [rising, partial curve] | –
CC(C)OC(=O)CSc1nnc(-c2ccc(Cl)cc2)n1N | -50.5% | – | 29.1 µM [falling, single point]
S=C(NCc1ccccc1)N1CCn2cccc2C1c1cccnc1 (centres undefined) | 6.4% | 0.164 µM [rising, full curve, poor fit] | –
c1ccc2c(c1)[nH]c1ccncc12 | 18.3% | 8.2 µM [rising, partial curve, poor fit] | –
COc1ccc(N2CCN(CCNC(=O)C3CCN(S(=O)(=O)c4cccs4)CC3)CC2)cc1 | – | 16.4 µM [rising, partial curve] | –
COc1cc(C(C)=O)ccc1OCC(O)Cn1nc(C)c(Br)c1C (centres undefined) | 16.5% | 29.1 µM [falling, single point] | –
O=c1cc[nH]c2cc(Cl)ccc12 | 5.53% | 18.4 µM [rising, single point] | –
CC1CCN(C(=O)COC(=O)COc2ccccc2C#N)CC1 | -8.2% | 6.51 µM [falling, single point] | –
O=C(NCc1cccc(Cl)c1)c1ccc2c(c1)OCCO2 | -19.1% | – | –
O=C(O)[C@@H]1CCCN1S(=O)(=O)c1cccc2cccnc12 | -3.28% | 3.26 µM [rising, partial curve] | –
O=C(NNC(=O)c1ccncc1)Nc1ccc([N+](=O)[O-])cc1 | 6.74% | – | –
CCN1CCc2c(sc(NC(=O)c3ccc(S(=O)(=O)N4CCCC4)cc3)c2C(=O)NC)C1 | -62.1% | 6.51 µM [falling, partial curve] | 5.17 µM [falling, partial curve]

An excerpt from the list above:
Structure (SMILES) | cell number change | AC50 [1] | AC50 [2]
C=CCn1c(SCC)nc(O)cc1=O | -26.4% | 29.1 µM [falling, single point] | 0.411 µM [falling, partial curve, poor fit]
CCN1CCN(c2oc(/C=C/c3ccccc3)nc2C#N)CC1 | – | 5.8 µM [rising, single point] | –
Cc1ccc(S(=O)(=O)N/N=C/c2ccc(OS(=O)(=O)c3ccc(C)c([N+](=O)[O-])c3)cc2)cc1 | 39.7% | – | 4.11 µM [rising, single point]
CSCCC(NS(=O)(=O)c1ccc2c(c1)OCCO2)C(=O)N(C)Cc1ccc(C)cc1 (centres undefined) | -44.9% | 1.64 µM [falling, full curve] | 1.84 µM [falling, full curve]
CC(=O)Nc1c(-c2ccc(F)cc2)nc2ccccn12 | 6.02% | 0.146 µM [falling, single point] | 0.103 µM [falling, single point]
COc1ccc(C)cc1S(=O)(=O)N(C)CC(=O)NC1CC1 | 1.4% | 29.1 µM [rising, single point] | –
COc1ccc(CS(=O)c2nc(C)cc(C)c2S(C)(=O)=O)cc1 (centres undefined) | 73.3% | – | 5.8 µM [falling, single point]
COc1ccc(/C=C2/C(=O)OCc3cc(OC)c(OC)cc32)cc1 | 0.497% | 9.2 µM [rising, partial curve] | –
CC(C)OC(=O)CSc1nnc(-c2ccc(Cl)cc2)n1N | -50.5% | – | 29.1 µM [falling, single point]
S=C(NCc1ccccc1)N1CCn2cccc2C1c1cccnc1 (centres undefined) | 6.4% | 0.164 µM [rising, full curve, poor fit] | –
c1ccc2c(c1)[nH]c1ccncc12 | 18.3% | 8.2 µM [rising, partial curve, poor fit] | –
COc1ccc(N2CCN(CCNC(=O)C3CCN(S(=O)(=O)c4cccs4)CC3)CC2)cc1 | – | 16.4 µM [rising, partial curve] | –
COc1cc(C(C)=O)ccc1OCC(O)Cn1nc(C)c(Br)c1C (centres undefined) | 16.5% | 29.1 µM [falling, single point] | –
O=c1cc[nH]c2cc(Cl)ccc12 | 5.53% | 18.4 µM [rising, single point] | –
CC1CCN(C(=O)COC(=O)COc2ccccc2C#N)CC1 | -8.2% | 6.51 µM [falling, single point] | –
O=C(NCc1cccc(Cl)c1)c1ccc2c(c1)OCCO2 | -19.1% | – | –
O=C(O)[C@@H]1CCCN1S(=O)(=O)c1cccc2cccnc12 | -3.28% | 3.26 µM [rising, partial curve] | –

(more compounds)

Structure (SMILES) | cell number change | AC50 [1] | AC50 [2]
Cc1cc(=O)oc2c3c(cc(OCC(=O)NCCC(=O)O)c12)OC(C)(C)CC3 | -1.42% | – | –
C[C@@H]1O[C@@H](O[C@@H]2C(=O)c3c(O)cc(O)cc3O[C@H]2c2ccc(O)c(O)c2)[C@H](O)[C@H](O)[C@H]1O | 12.3% | 6.51 µM [rising, single point] | –
CC(C)c1nc(-c2ccccn2)no1 | 5.06% | 0.13 µM [falling, single point] | –
CCCN(Cc1cc2cc(C)ccc2[nH]c1=O)S(C)(=O)=O | 43.8% | 20.6 µM [rising, single point] | 0.58 µM [rising, full curve]
CC(=O)c1cn(Cc2ccccc2)c(=O)[nH]c1=O | -20.9% | 0.231 µM [falling, full curve] | –
Cc1nonc1N1CCN(Cc2cn[nH]c2-c2ccc(F)cc2F)CC1 | 17.9% | – | –
C/C(Cl)=C\Cn1c(NCCc2ccccc2)nc2c1c(=O)n(C)c(=O)n2C | – | 4.61 µM [falling, full curve] | –
Cc1onc(-c2ccccc2)c1C(=O)Nc1nc(-c2ccc(F)c(F)c2)cs1 | -10.6% | – | –
O=C(O)CCCCNS(=O)(=O)c1ccc(Cl)c(C(F)(F)F)c1 | 4.8% | 13 µM [falling, partial curve] | –
Cc1ccc(C)c(-n2c(SCC(=O)N3CCC(C(=O)O)CC3)nnc2-c2cccc(Cl)c2)c1 | -21.8% | 0.517 µM [falling, full curve] | 0.259 µM [falling, full curve, poor fit]
CC(NCC(=O)Nc1ccccc1C(=O)NC1CC1)c1ccc(S(N)(=O)=O)cc1 (centres undefined) | 15.5% | 0.82 µM [rising, full curve] | –
COC(=O)C1=C(C)NC2=C(C(=O)CCC2)C1c1cn(Cc2ccc(Cl)cc2Cl)nc1-c1ccccc1 (centres undefined) | -36.9% | – | 1.64 µM [falling, partial curve]
COc1cc(/C=C/C(=O)N2CCc3ccccc3C2)cc(OC)c1OC | -17.3% | – | –
CC(=O)Nc1sc(C)c(C)c1C(=O)OCC(=O)Nc1cc(S(=O)(=O)N2CCCCC2)ccc1Cl | 13.2% | 6.51 µM [rising, single point] | –
O=C(c1cccc2ccccc12)N1CCN(c2ccccc2F)CC1 | 4.23% | – | 2.59 µM [rising, partial curve]
CCOC(=O)/C=c1\s/c(=C\c2ccc3c(c2)OCCO3)c(=O)n1CC(=O)NCC1CCCO1 (centres undefined) | – | 18.4 µM [rising, partial curve] | 3.26 µM [rising, partial curve]
N#Cc1ccc(-c2ccc(OCC(O)Cn3nnc4ccccc43)cc2)cc1 (centres undefined) | 2.03% | 29.1 µM [falling, single point] | –
COc1ccc(N2C(=O)CC(C)(C)CC2=O)cc1OC | 23.6% | 11.6 µM [falling, single point] | –
CN(c1ccccc1)c1ccc(/C=C(\CCC(=O)O)c2nc3ccccc3s2)cc1[N+](=O)[O-] | – | 16.4 µM [rising, partial curve] | 0.58 µM [falling, single point]
